Data published in patent publication US20090022803A1, “Oral Formulations For Delivery of Catecholic Butanes Including Ndga Compounds” (priority 2005, published 2009).
“Also recorded” adds a separate entry of the source. This continues a long series; more values of the same kind are listed elsewhere.

Experiments:
Format in all cases: physicochemical
[1] = M4N solubility in water miscible organic solvents up to 48 hours, RP-HPLC
Description: To prepare M4N samples, 200 μL of 100 mg/mL M4N dissolved in acetone were placed in 1.5 mL polypropylene microtubes. The solvent was allowed to evaporate at room temperature for 48 hours until the samples were completely dry.
The water miscible organic solvent formulations were prepared in 15 mL polypropylene centrifuge tubes. 10 mL of each formulation was prepared. Each solvent was added on the basis of weight using its respective density at 25° C. Following brief mixing, each formulation was filtered through a 0.45 μm surfactant free cellulose acetate (“SFCA”) filter into a fresh 15 mL tube. Formulations were kept at room temperature until ready for use.
At each time point, the samples were centrifuged for 2 minutes at 13,000 rpm to pellet any solid M4N. As noted in Table 25, over half of the formulation conditions examined were able to solubilize M4N to a concentration of greater than 10 mg/Ml.

[2] = M4N stability in 11-14 mg/mL PEG 300/HP-β-CD solutions, 24 hours room temperature, RP-HPLC; settings: 11-14 mg/mL M4N, 25% PEG 300 and 30% HP-β-CD
Description: To support manufacturing specifications, this study examined the 24-hour room temperature stability of combinations of PEG 300/HP-β-CD at varying M4N target concentrations. Stock samples of M4N stocks were prepared in 100% PEG 300 at drug concentrations of 33-56 mg/mL at 60° C. as follows.
M4N bulk drug was solubilized to concentrations of 33, 44, 48, 52, 55 and 56 mg/mL (w/w) in PEG 300 using the procedure set forth in Examples 14 and 17, following incubation of at least 2 hours at 60° C. Vigorous vortexing and mixing were necessary for complete solubilization of M4N above 44 mg/mL. The M4N stock solutions were filtered through a 0.45 μm SFCA filter and used within 30 minutes of preparation. Separately, a solution of 40% (w/v) HP-β-CD was prepared in sterile WFI and filtered. Combinations of the 40% HP-β-CD stock and the M4N/PEG 300 stocks were combined in 1.5 mL polypropylene microtubes.
The requisite amount of M4N stock was added to 40% HP-β-CD to yield the final concentrations of drug and excipients listed in Table 28. Samples were gently rotated (˜12 rpm) at room temperature. At 2 and 24 hours of incubation, samples were centrifuged 2 minutes at 13,000 rpm and 50 μL aliquots were removed for RP-HPLC analysis.

[3] = Phase solubility of M4N in HP-β-CD (Higuchi and Connors), RP-HPLC; settings: HP-β-CD 0-350 mmol/L, 48 hours, room temperature
Description: The aqueous solubility of M4N at various concentrations of HP-β-CD was evaluated by the method reported by Higuchi and Connors (1965). […] The M4N/HP-β-CD solutions were then filtered through a 0.45 μm SFCA filter and analyzed via RP-HPLC.

COc1ccc(C[C@@H](C)[C@@H](C)Cc2ccc(OC)c(OC)c2)cc1OC [Formulation M4N, meso-1,4-bis(3,4-dimethoxyphenyl)-2,3-dimethylbutane]
M4N solubility ([1]; 14% EtOH, 30% PG, 40% Glyc, 10% T80, 6% DMA, 2 hrs, room temperature): 850 µg/mL | M4N solubility ([1]; 14% EtOH, 30% PG, 40% PEG300, 10% T80, 6% DMA, 2 hrs, room temperature): 9400 µg/mL | M4N solubility ([1]; 18% EtOH, 30% PG, 40% Glyc, 10% T80, 2% Benz, 2 hrs, room temperature): 580 µg/mL | M4N solubility ([1]; 24% EtOH, 30% PG, 30% PEG300, 10% T80, 6% DMA, 48 hrs, room temperature): 10670 µg/mL | M4N solubility ([1]; 44% EtOH, 50% Glycerol, 6% DMA, 24 hrs, room temperature): 1900 µg/mL | M4N solubility ([1]; 44% EtOH, 50% PG, 6% DMA, 2 hrs, room temperature): 4800 µg/mL | M4N solubility ([1]; 44% EtOH, 50% T80, 6% DMA, 48 hrs, room temperature): 23000 µg/mL | M4N solubility ([1]; 50% EtOH, 50% Glycerol, 48 hrs, room temperature): 1600 µg/mL | M4N solubility ([1]; 50% EtOH, 50% PEG300, 2 hrs, room temperature): 10940 µg/mL | M4N solubility ([1]; 50% EtOH, 50% T80, 48 hrs, room temperature): 19680 µg/mL | M4N solubility ([1]; 50% PG, 50% Crem, 48 hrs, room temperature): 7200 µg/mL | M4N solubility ([1]; 50% PG, 50% Glycerol, 2 hrs, room temperature): 130 µg/mL | M4N solubility ([1]; 50% PG, 50% Glycerol, 24 hrs, room temperature): 480 µg/mL | M4N solubility ([1]; 50% PG, 50% Glycerol, 48 hrs, room temperature): 510 µg/mL | M4N solubility ([1]; 50% PG, 50% PEG300, 48 hrs, room temperature): 5300 µg/mL | M4N solubility ([1]; 100% EtOH, 2 hrs, room temperature): 7200 µg/mL | M4N solubility ([1]; 100% Glycerol, 2 hrs, room temperature, XXX: not detectable): XXX | M4N solubility ([1]; 100% Glycerol, 24 hrs, room temperature): 80 µg/mL | M4N solubility ([1]; 100% Glycerol, 48 hrs, room temperature, XXX: not detectable): XXX | M4N solubility ([1]; 100% PG, 2 hrs, room temperature): 1100 µg/mL | solubility of M4N ([1]; glycerol, 2 hours, room temperature): not detectable | solubility of M4N ([1]; glycerol, 48 hours, room temperature): not detectable | solubility of M4N ([1]; more than 20 formulation conditions using water miscible organic solvents): greater than 10 mg/mL | solubility of M4N ([1]; over half of the water miscible organic solvent formulation conditions examined): greater than 10 mg/Ml | change in solubility / stability after 24 hours incubation at room temperature [2]: little if any changes; also recorded: stable | phase-solubility profile, formation of the M4N/HP-β-CD complex [3]: non-linear
